## Assay results

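Malaria parasite (P. falciparum) lines kept in red blood cells; parasite DNA is measured by SYBR Green fluorescence after lysis, 72 h after compound addition. Each compound was titrated across a series from about 0.000037 to 29 µM. The number is the fitted AC50, the concentration giving a half-maximal change in signal; a lower value means higher potency, whether the curve shows a decrease or an increase. Calls follow the curve class and fit quality: every row here is inconclusive, covering signal-raising curves and weak, poorly fitted, partial or highest-dose-only inhibition curves.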

Values are in µM. All entries here are filed as inconclusive. Only part of the assay is shown, chiefly results filed as inconclusive. Potencies fitted to partial, single-point or poorly fitting curves are rough. The first word of each remark tells which way the curve ran; it can be opposite to the aim of the assay.

| Compound | setting | potency (µM) | remark |
|---|---|---|---|
| `CNCC[C@H](Oc1cccc2ccccc12)c1cccs1` | CP185 | 11.22 | inhibitor, single point |
| `CNCC[C@H](Oc1cccc2ccccc12)c1cccs1` | CP335 | 19.01 | inhibitor, single point |
| `CNCC[C@H](Oc1cccc2ccccc12)c1cccs1` | HB3 | 11.22 | inhibitor, single point |
| `CNCC[C@H](Oc1cccc2ccccc12)c1cccs1` | CP262 | 15.1 | inhibitor, single point |
| `CNCC[C@H](Oc1cccc2ccccc12)c1cccs1` | 3D7 | 11.22 | inhibitor, single point |
| `CNCC[C@H](Oc1cccc2ccccc12)c1cccs1` | CP265 | 4.467 | inhibitor, partial curve |
| `CNCC[C@H](Oc1cccc2ccccc12)c1cccs1` | CP268 | 0.0005 | inhibitor |
| `CNCC[C@H](Oc1cccc2ccccc12)c1cccs1` | CP252 | 12.59 | inhibitor, partial curve |
| `CNCC[C@H](Oc1cccc2ccccc12)c1cccs1` | CP238 | 7.943 | inhibitor, partial curve |
| `CNCC[C@H](Oc1cccc2ccccc12)c1cccs1` | DIV14 | 6.746 | inhibitor, partial curve, poor fit |
| `CNCC[C@H](Oc1cccc2ccccc12)c1cccs1` | C2A | 8.912 | inhibitor, single point |
| `O=C(O)c1ccccc1-c1c2cc(Br)c(=O)cc-2oc2[c]([Hg])c(O)c(Br)cc12` | CP266 | 8.087 | activator, single point |
| `O=C(O)c1ccccc1-c1c2cc(Br)c(=O)cc-2oc2[c]([Hg])c(O)c(Br)cc12` | 7G8 | 10 | inhibitor, single point |
| `O=C(O)c1ccccc1-c1c2cc(Br)c(=O)cc-2oc2[c]([Hg])c(O)c(Br)cc12` | PC49 | 4.467 | activator, partial curve |
| `O=C(O)c1ccccc1-c1c2cc(Br)c(=O)cc-2oc2[c]([Hg])c(O)c(Br)cc12` | PC15 | 5.012 | activator, single point |
| `O=C(O)c1ccccc1-c1c2cc(Br)c(=O)cc-2oc2[c]([Hg])c(O)c(Br)cc12` | 3D7 | 3.162 | activator, partial curve |
| `O=C(O)c1ccccc1-c1c2cc(Br)c(=O)cc-2oc2[c]([Hg])c(O)c(Br)cc12` | CP297 | 0.1018 | activator, full curve, poor fit |
| `Clc1ccc(Nc2nnc(Cc3ccncc3)c3ccccc23)cc1` | N140 | 11.22 | inhibitor, partial curve |
| `Clc1ccc(Nc2nnc(Cc3ccncc3)c3ccccc23)cc1` | P94_40 | 10 | inhibitor, single point |
| `Clc1ccc(Nc2nnc(Cc3ccncc3)c3ccccc23)cc1` | DIV14 | 8.492 | inhibitor, partial curve |
| `Clc1ccc(Nc2nnc(Cc3ccncc3)c3ccccc23)cc1` | AA1029 | 10 | inhibitor, single point |
| `Clc1ccc(Nc2nnc(Cc3ccncc3)c3ccccc23)cc1` | CP237 | 12.59 | inhibitor, single point |
| `Clc1ccc(Nc2nnc(Cc3ccncc3)c3ccccc23)cc1` | CP335 | 10.69 | inhibitor, partial curve, poor fit |
| `Clc1ccc(Nc2nnc(Cc3ccncc3)c3ccccc23)cc1` | Dd2 | 7.943 | inhibitor, partial curve, poor fit |
| `Clc1ccc(Nc2nnc(Cc3ccncc3)c3ccccc23)cc1` | AS120 | 11.22 | inhibitor, single point |
| `Clc1ccc(Nc2nnc(Cc3ccncc3)c3ccccc23)cc1` | DIV30 | 12 | inhibitor, single point |
| `Clc1ccc(Nc2nnc(Cc3ccncc3)c3ccccc23)cc1` | CP286 | 15.85 | inhibitor, single point |
| `Clc1ccc(Nc2nnc(Cc3ccncc3)c3ccccc23)cc1` | DIV17 | 13.46 | inhibitor, partial curve |
| `Clc1ccc(Nc2nnc(Cc3ccncc3)c3ccccc23)cc1` | CP260 | 11.22 | inhibitor, single point |
| `Clc1ccc(Nc2nnc(Cc3ccncc3)c3ccccc23)cc1` | ICS | 10 | inhibitor, single point |
| `Clc1ccc(Nc2nnc(Cc3ccncc3)c3ccccc23)cc1` | W2 | 19.01 | inhibitor, single point |
| `Clc1ccc(Nc2nnc(Cc3ccncc3)c3ccccc23)cc1` | PAD | 11.22 | inhibitor, single point |
| `Clc1ccc(Nc2nnc(Cc3ccncc3)c3ccccc23)cc1` | CP191 | 14.13 | inhibitor, single point |
| `Clc1ccc(Nc2nnc(Cc3ccncc3)c3ccccc23)cc1` | CP217 | 10 | inhibitor, single point |
| `Clc1ccc(Nc2nnc(Cc3ccncc3)c3ccccc23)cc1` | CP247 | 5.623 | inhibitor, partial curve |
| `Clc1ccc(Nc2nnc(Cc3ccncc3)c3ccccc23)cc1` | P93_24 | 11.22 | inhibitor, single point |
| `CCOc1ccccc1O[C@@H](c1ccccc1)[C@@H]1CNCCO1` | CP203 | 5.358 | inhibitor, partial curve |
| `CCOc1ccccc1O[C@@H](c1ccccc1)[C@@H]1CNCCO1` | CP247 | 3.162 | inhibitor, partial curve |
| `CCOc1ccccc1O[C@@H](c1ccccc1)[C@@H]1CNCCO1` | CP191 | 10 | inhibitor, single point |
| `CCOc1ccccc1O[C@@H](c1ccccc1)[C@@H]1CNCCO1` | CP260 | 12.59 | inhibitor, partial curve |
| `CCOc1ccccc1O[C@@H](c1ccccc1)[C@@H]1CNCCO1` | SC27B | 12.59 | inhibitor, partial curve |
| `CCOc1ccccc1O[C@@H](c1ccccc1)[C@@H]1CNCCO1` | CP335 | 1.901 | inhibitor, partial curve |
| `CCOc1ccccc1O[C@@H](c1ccccc1)[C@@H]1CNCCO1` | ATS189 | 7.943 | inhibitor, single point |
| `CCOc1ccccc1O[C@@H](c1ccccc1)[C@@H]1CNCCO1` | CP217 | 7.943 | inhibitor, partial curve |
| `CCOc1ccccc1O[C@@H](c1ccccc1)[C@@H]1CNCCO1` | 3D7 | 19.95 | inhibitor, single point |
| `CCOc1ccccc1O[C@@H](c1ccccc1)[C@@H]1CNCCO1` | PAD | 11.22 | inhibitor, partial curve, poor fit |

Repeated from the top, 4 entries:

CNCC[C@H](Oc1cccc2ccccc12)c1cccs1 [CP185] gave potency 11.22 µM (inhibitor, single point).
CNCC[C@H](Oc1cccc2ccccc12)c1cccs1 [CP335] gave potency 19.01 µM (inhibitor, single point).
CNCC[C@H](Oc1cccc2ccccc12)c1cccs1 [HB3] gave potency 11.22 µM (inhibitor, single point).
CNCC[C@H](Oc1cccc2ccccc12)c1cccs1 [CP262] gave potency 15.1 µM (inhibitor, single point).

The results are deposited in PubChem (AID504749; NCATS, 2011).